Differences between knockout arms are mostly noise.
Tested on: SKBR3
Assay: relative cell number vs DMSO control (72 h) (% of DMSO); higher = less growth inhibition (more cells)
Procedure: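 QMAP-Seq: a pool of 5 breast cancer cell lines (ZR-75-1, SKBR3, HCC-38, MDA-MB-231, BT-20), each carrying 12 doxycycline-inducible Cas9 sgRNA perturbations (11 knockouts plus non-targeting sgNT), was treated with compounds for 72 h at four 10-fold doses (10 nM-10 uM or 1 nM-1 uM range). Barcodes were amplified and sequenced, and cell number was interpolated from 293T spike-in standard curves. The result is expressed as % of the median of DMSO wells. Two biological replicates.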

O=P1(NCCCl)OCCCN1CCCl (configuration not stated) [Ifosfamide]
Settings | relative cell number
sgRNA knockout: sgATF3, 10 nM | 112
sgRNA knockout: sgATF3, 100 nM | 96.2
sgRNA knockout: sgATF3, 1000 nM | 120
sgRNA knockout: sgATF3, 10000 nM | 100
sgRNA knockout: sgATF4, 10 nM | 91.8
sgRNA knockout: sgATF4, 100 nM | 99.7
sgRNA knockout: sgATF4, 1000 nM | 98.5
sgRNA knockout: sgATF4, 10000 nM | 99.4
sgRNA knockout: sgATF6, 10 nM | 110
sgRNA knockout: sgATF6, 100 nM | 95.3
sgRNA knockout: sgATF6, 1000 nM | 97.5
sgRNA knockout: sgATF6, 10000 nM | 95.9
sgRNA knockout: sgATG7, 10 nM | 101.8
sgRNA knockout: sgATG7, 100 nM | 105.7
sgRNA knockout: sgATG7, 1000 nM | 101
sgRNA knockout: sgATG7, 10000 nM | 102
sgRNA knockout: sgERN1, 10 nM | 97.9
sgRNA knockout: sgERN1, 100 nM | 88.7
sgRNA knockout: sgERN1, 1000 nM | 74.8
sgRNA knockout: sgERN1, 10000 nM | 106
sgRNA knockout: sgHSF1, 10 nM | 86.9
sgRNA knockout: sgHSF1, 100 nM | 91.5
sgRNA knockout: sgHSF1, 1000 nM | 110
sgRNA knockout: sgHSF1, 10000 nM | 88.8
sgRNA knockout: sgHSF2, 10 nM | 114
sgRNA knockout: sgHSF2, 100 nM | 71.6
sgRNA knockout: sgHSF2, 1000 nM | 99.6
sgRNA knockout: sgHSF2, 10000 nM | 82.6
sgRNA knockout: sgKEAP1, 10 nM | 104
sgRNA knockout: sgKEAP1, 100 nM | 108
sgRNA knockout: sgKEAP1, 1000 nM | 85
sgRNA knockout: sgKEAP1, 10000 nM | 81.2
sgRNA knockout: sgNFE2L2, 10 nM | 108.6
sgRNA knockout: sgNFE2L2, 100 nM | 101
sgRNA knockout: sgNFE2L2, 1000 nM | 101
sgRNA knockout: sgNFE2L2, 10000 nM | 101
sgRNA knockout: sgSLC35F2, 10 nM | 108
sgRNA knockout: sgSLC35F2, 100 nM | 110
sgRNA knockout: sgSLC35F2, 1000 nM | 96
sgRNA knockout: sgSLC35F2, 10000 nM | 80.3
sgRNA knockout: sgXBP1, 10 nM | 112
sgRNA knockout: sgXBP1, 100 nM | 93.8
sgRNA knockout: sgXBP1, 1000 nM | 94.8
sgRNA knockout: sgXBP1, 10000 nM | 104

O=C1NC(=O)[C@@H](c2cn3c4c(cccc24)CCC3)[C@@H]1c1c[nH]c2ccccc12 [Tivantinib]
Settings | relative cell number
sgRNA knockout: sgATF3, 10 nM | 99.3
sgRNA knockout: sgATF3, 100 nM | 78.4
sgRNA knockout: sgATF3, 1000 nM | 16.8
sgRNA knockout: sgATF3, 10000 nM | 8.43
sgRNA knockout: sgATF4, 10 nM | 90.4
sgRNA knockout: sgATF4, 100 nM | 87.2
sgRNA knockout: sgATF4, 1000 nM | 18.7
sgRNA knockout: sgATF4, 10000 nM | 12.8
sgRNA knockout: sgATF6, 10 nM | 99.46
sgRNA knockout: sgATF6, 100 nM | 93.3
sgRNA knockout: sgATF6, 1000 nM | 15.4
sgRNA knockout: sgATF6, 10000 nM | 12
sgRNA knockout: sgATG7, 10 nM | 87.6
sgRNA knockout: sgATG7, 100 nM | 98.8
sgRNA knockout: sgATG7, 1000 nM | 19.5
sgRNA knockout: sgATG7, 10000 nM | 8.63
sgRNA knockout: sgERN1, 10 nM | 101
sgRNA knockout: sgERN1, 100 nM | 94.2
sgRNA knockout: sgERN1, 1000 nM | 13.7
sgRNA knockout: sgERN1, 10000 nM | 9.33
sgRNA knockout: sgHSF1, 10 nM | 91.96
sgRNA knockout: sgHSF1, 100 nM | 86.3
sgRNA knockout: sgHSF1, 1000 nM | 16
sgRNA knockout: sgHSF1, 10000 nM | 9.28
sgRNA knockout: sgHSF2, 10 nM | 81.39
sgRNA knockout: sgHSF2, 100 nM | 81.8
sgRNA knockout: sgHSF2, 1000 nM | 17.1
sgRNA knockout: sgHSF2, 10000 nM | 9.44
sgRNA knockout: sgKEAP1, 10 nM | 86.5
sgRNA knockout: sgKEAP1, 100 nM | 99.2
sgRNA knockout: sgKEAP1, 1000 nM | 17.5
sgRNA knockout: sgKEAP1, 10000 nM | 10.9
sgRNA knockout: sgNFE2L2, 10 nM | 90.4
sgRNA knockout: sgNFE2L2, 100 nM | 89.5
sgRNA knockout: sgNFE2L2, 1000 nM | 19.6
sgRNA knockout: sgNFE2L2, 10000 nM | 8.35
sgRNA knockout: sgSLC35F2, 10 nM | 93.1
sgRNA knockout: sgSLC35F2, 100 nM | 90.5
sgRNA knockout: sgSLC35F2, 1000 nM | 18.1
sgRNA knockout: sgSLC35F2, 10000 nM | 10.6
sgRNA knockout: sgXBP1, 10 nM | 101
sgRNA knockout: sgXBP1, 100 nM | 108
sgRNA knockout: sgXBP1, 1000 nM | 19.5
sgRNA knockout: sgXBP1, 10000 nM | 11

CCOC(=O)[C@@]1(CCCCCCOc2ccc(Cl)cc2)CO1 [Etomoxir]
Settings | relative cell number
sgRNA knockout: sgATF3, 10 nM | 95
sgRNA knockout: sgATF3, 100 nM | 114
sgRNA knockout: sgATF3, 1000 nM | 107
sgRNA knockout: sgATF3, 10000 nM | 104
sgRNA knockout: sgATF4, 10 nM | 93.4
sgRNA knockout: sgATF4, 100 nM | 90.3
sgRNA knockout: sgATF4, 1000 nM | 88.3
sgRNA knockout: sgATF4, 10000 nM | 88.4
sgRNA knockout: sgATF6, 10 nM | 92.9
sgRNA knockout: sgATF6, 100 nM | 75.6
sgRNA knockout: sgATF6, 1000 nM | 78.9
sgRNA knockout: sgATF6, 10000 nM | 80.9
sgRNA knockout: sgATG7, 10 nM | 77.6
sgRNA knockout: sgATG7, 100 nM | 89.2
sgRNA knockout: sgATG7, 1000 nM | 127
sgRNA knockout: sgATG7, 10000 nM | 108
sgRNA knockout: sgERN1, 10 nM | 80.2
sgRNA knockout: sgERN1, 100 nM | 93.3
sgRNA knockout: sgERN1, 1000 nM | 107
sgRNA knockout: sgERN1, 10000 nM | 103
sgRNA knockout: sgHSF1, 10 nM | 99.7
sgRNA knockout: sgHSF1, 100 nM | 84.2
sgRNA knockout: sgHSF1, 1000 nM | 103
sgRNA knockout: sgHSF1, 10000 nM | 79.1
sgRNA knockout: sgHSF2, 10 nM | 74.1
sgRNA knockout: sgHSF2, 100 nM | 95.9
sgRNA knockout: sgHSF2, 1000 nM | 87.9
sgRNA knockout: sgHSF2, 10000 nM | 112
sgRNA knockout: sgKEAP1, 10 nM | 87.1
sgRNA knockout: sgKEAP1, 100 nM | 88.3
sgRNA knockout: sgKEAP1, 1000 nM | 98.4
sgRNA knockout: sgKEAP1, 10000 nM | 91.6
sgRNA knockout: sgNFE2L2, 10 nM | 92.7
sgRNA knockout: sgNFE2L2, 100 nM | 94.7
sgRNA knockout: sgNFE2L2, 1000 nM | 92.3
sgRNA knockout: sgNFE2L2, 10000 nM | 99.6
sgRNA knockout: sgSLC35F2, 10 nM | 95.9
sgRNA knockout: sgSLC35F2, 100 nM | 97.5
sgRNA knockout: sgSLC35F2, 1000 nM | 89.3
sgRNA knockout: sgSLC35F2, 10000 nM | 81.9
sgRNA knockout: sgXBP1, 10 nM | 97.1
sgRNA knockout: sgXBP1, 100 nM | 94.9
sgRNA knockout: sgXBP1, 1000 nM | 111
sgRNA knockout: sgXBP1, 10000 nM | 81.5

Reference: the supplement of paper PMC7661543
